Source: the supplement of paper PMC4604168 (melanoma cell lines)
The list shows a part of the results. Repeats are few or missing, and single values can be far off.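 Imaging used 1,536-well plates; nuclei positive for cleaved PARP by antibody were divided by total DNA-stained nuclei to yield the apoptosis fraction. Doses for screening kept most cells viable, and cell lines differ markedly in resting and induced cleaved-PARP levels.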

System: G361
Test: cleaved PARP positive nuclei fraction relative to DMSO control; melanoma cells; higher = more apoptosis
Settings: library dose: low library concentration; 72 h

| SMILES | cleaved PARP positive nuclei fraction [%] |
| --- | --- |
| OCCn1cc(-c2cnc3nnn(Cc4ccc5ncccc5c4)c3n2)cn1 + Cc1cc([N+](=O)[O-])ccc1NS(=O)(=O)c1cc(Cl)ccc1Cl [FH535] (first compound 1 µM, partner dose 1 µM) | 314 |
| Nc1cccc2c1CN(C1CCC(=O)NC1=O)C2=O (stereo not drawn) [lenalidomide] + CCN(CC)CCCCNc1ncc2cc(-c3cc(OC)cc(OC)c3)c(NC(=O)NC(C)(C)C)nc2n1 [PD173074] (first compound 1 µM, partner dose 0.1 µM) | 51.8 |
| C[C@@H]1CCN(C(=O)CC#N)C[C@@H]1N(C)c1ncnc2[nH]ccc12 + O=C(O)C(=O)Nc1sc2c(c1C(=O)O)CCNC2 [TCS401] (first compound 1 µM, partner dose 1.66667 µM) | 70.4 |
| OCCn1cc(-c2cnc3nnn(Cc4ccc5ncccc5c4)c3n2)cn1 + COc1ccc2c(c1)CCC1C2CCC2(C)C(NCCCCCCN3C(=O)C=CC3=O)CCC12 [U73122] (first compound 1 µM, partner dose 0.4 µM) | 26.5 |
| Cc1cc(N2CCOCC2)cc2[nH]c(-c3c(NC[C@@H](O)c4cccc(Cl)c4)cc[nH]c3=O)nc12 + O=C(Nc1ccccc1)c1cc([N+](=O)[O-])ccc1Cl [GW9662] (first compound 0.2 µM, partner dose 2 µM) | 191 |
| Nc1cccc2c1CN(C1CCC(=O)NC1=O)C2=O (stereo not drawn) [lenalidomide] + O=C(Nc1ccccc1)c1cc([N+](=O)[O-])ccc1Cl [GW9662] (first compound 1 µM, partner dose 2 µM) | 308 |
| CC(C)(C)c1cnc(CSc2cnc(NC(=O)C3CCNCC3)s2)o1 + Oc1cc(-c2nc(-c3ccccc3)[nH]c2-c2ccncc2)ccc1Cl [L779450] (first compound 0.01 µM, partner dose 0.2 µM) | 122 |
| Cc1nc(Nc2ncc(C(=O)Nc3c(C)cccc3Cl)s2)cc(N2CCN(CCO)CC2)n1 [dasatanib] + COC(=O)c1sccc1S(=O)(=O)Nc1ccc(Nc2ccccc2)cc1OC [GSK0660] (first compound 0.004 µM, partner dose 1 µM) | 142 |
| C#Cc1cccc(Nc2ncnc3cc(OCCOC)c(OCCOC)cc23)c1 [erlotinib] + O=C(O)C(=O)Nc1sc2c(c1C(=O)O)CCNC2 [TCS401] (first compound 0.8 µM, partner dose 1.66667 µM) | 34.5 |
| Cn1c(Nc2ccc(C(F)(F)F)cc2)nc2cc(Oc3ccnc(-c4ncc(C(F)(F)F)[nH]4)c3)ccc21 + CCCCCCCCCCCC1=C(O)C(=O)C=C(O)C1=O [Embelin] (first compound 0.08 µM, partner dose 1.2 µM) | 298 |
| Cn1cncc1[C@@](N)(c1ccc(Cl)cc1)c1ccc2c(c1)c(-c1cccc(Cl)c1)cc(=O)n2C [tipifarnib] + COc1cc2ncnc(Nc3ccc(Oc4ccccc4)cc3)c2cc1OC [SrcI1] (first compound 0.01 µM, partner dose 2 µM) | 158 |
| C#Cc1cccc(Nc2ncnc3cc(OCCOC)c(OCCOC)cc23)c1 [erlotinib] + COc1cc2ncnc(Nc3ccc(Oc4ccccc4)cc3)c2cc1OC [SrcI1] (first compound 0.8 µM, partner dose 2 µM) | 137 |
| Nc1cccc2c1CN(C1CCC(=O)NC1=O)C2=O (stereo not drawn) [lenalidomide] + Cn1cc(/C=C2\C(=O)Nc3cccnc32)c2ccccc21 [GW441756] (first compound 1 µM, partner dose 0.4 µM) | 125 |
| Cc1nc(Nc2ncc(C(=O)Nc3c(C)cccc3Cl)s2)cc(N2CCN(CCO)CC2)n1 [dasatanib] + c1cc(-c2cnn3cc(-c4ccc(OCCN5CCCCC5)cc4)cnc23)ccn1 [Dorsomorphin] (first compound 0.004 µM, partner dose 0.4 µM) | 40.5 |
| Cn1cncc1[C@@](N)(c1ccc(Cl)cc1)c1ccc2c(c1)c(-c1cccc(Cl)c1)cc(=O)n2C [tipifarnib] + O=C(O)C(=O)Nc1sc2c(c1C(=O)O)CCNC2 [TCS401] (first compound 0.01 µM, partner dose 1.66667 µM) | 85.3 |
| Cn1c(Nc2ccc(C(F)(F)F)cc2)nc2cc(Oc3ccnc(-c4ncc(C(F)(F)F)[nH]4)c3)ccc21 + O=C(Nc1ccccc1)c1cc([N+](=O)[O-])ccc1Cl [GW9662] (first compound 0.08 µM, partner dose 2 µM) | 209 |
| Cn1cncc1[C@@](N)(c1ccc(Cl)cc1)c1ccc2c(c1)c(-c1cccc(Cl)c1)cc(=O)n2C [tipifarnib] + Oc1nc(-c2ccc(C(F)(F)F)cc2)nc2c1CSCC2 [XAV939] (first compound 0.01 µM, partner dose 2 µM) | 95.1 |
| Cn1nnc2c(C(N)=O)ncn2c1=O [temozolomide] + COc1ccc2c(c1)CCC1C2CCC2(C)C(NCCCCCCN3C(=O)C=CC3=O)CCC12 [U73122] (first compound 2 µM, partner dose 0.4 µM) | 57.4 |

As a short view, part of the list above:

| SMILES | cleaved PARP positive nuclei fraction [%] |
| --- | --- |
| Cc1nc(Nc2ncc(C(=O)Nc3c(C)cccc3Cl)s2)cc(N2CCN(CCO)CC2)n1 [dasatanib] + c1cc(-c2cnn3cc(-c4ccc(OCCN5CCCCC5)cc4)cnc23)ccn1 [Dorsomorphin] (first compound 0.004 µM, partner dose 0.4 µM) | 40.5 |
| Cn1cncc1[C@@](N)(c1ccc(Cl)cc1)c1ccc2c(c1)c(-c1cccc(Cl)c1)cc(=O)n2C [tipifarnib] + O=C(O)C(=O)Nc1sc2c(c1C(=O)O)CCNC2 [TCS401] (first compound 0.01 µM, partner dose 1.66667 µM) | 85.3 |
